Here are results for 1 sequence from article PMC10234410.

Chains of the proteins cited; added tags and fusions are not shown.
UniProt M9PFG6, entry or part of it: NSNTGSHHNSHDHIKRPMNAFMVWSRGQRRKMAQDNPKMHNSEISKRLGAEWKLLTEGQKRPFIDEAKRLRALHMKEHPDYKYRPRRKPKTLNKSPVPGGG

For this data set, the target named is Sox21aHMG-BD (Drosophila melanogaster) (UniProt M9PFG6). Kind of data set: EMSA. The following applies: 25 mM HEPES pH 7.5, 40 mM KCl, 3 mM DTT, 10% glycerol, 0.1 mM EDTA, 0.5 mg/ml BSA, 0.5 mg/ml poly-glutamate, 25 C, 30 min; 6% native PAGE; recombinant protein; residues 108-208; protein details: His-tag at C-terminus (pET-28b); label: Cy5; probe letters rebuilt from the primers and the genome. On the technique in general: Mobility shift assays separate free from complexed probe on a gel.

For at least one entry, the source does not settle the construct or the ends of the probe.

On to “AGTCAGTAGAGATAAGTGCGCAGAGCAATAGGAAAAAATATTGCGCTCAATTCGAACAGAGTAAACGCCAGTAGGTAAATTCAAAAGGGTAACGGCCATAGAATTTGTTGTTCAACACTCAACAAAATACCGCGATACATACCAGAAAGTGTGCGATAGCCAGCGAAACGGGCACACCAATTCAGCTGACGCTTCACGTCCAATTCATTTTGGCATTTAAAAAATCGAACGGTTTCGGCGCGTTCTCCGCTTTGTGCTTGGTTTTCGTGCATTCTTATCTCTACTGACT (double strand) [Cy5-labeled F2-4 probe]”, for which the binding result was “binds”.
